Earlier results on 1 compound are cited in patent US20220016101A1 (ACADIA Pharmaceuticals Inc., priority 2018, published 2022).

As usually defined, the Ki is a measure of affinity in units of concentration, obtained from inhibition or displacement.

For the data set, the target named is alpha1 adrenergic receptor. To be noted: read-out: affinity (Ki) α1; other noteworthy target; literature sources; cited from earlier work.

Consider `O=c1n(CCCN2CCN(c3cccc(Cl)c3)CC2)nc2ccccn12` [TRAZ, trazodone], for which the inhibition constant (Ki) is 10 to 40 nM.
